From article PMC4358366, “Identification of ‘erasers’ for lysine crotonylated histone marks using a chemical proteomics approach” (eLife, 2014)
Results are given in words; binding and its absence hold for the method and conditions named. Some binding calls cover weakened binding; strength is not graded here.

Sequences of proteins named here, by UniProt entry; tags and fusion partners are left off. Residues count along the entry.
UniProt Q96EB6, residues 193-747: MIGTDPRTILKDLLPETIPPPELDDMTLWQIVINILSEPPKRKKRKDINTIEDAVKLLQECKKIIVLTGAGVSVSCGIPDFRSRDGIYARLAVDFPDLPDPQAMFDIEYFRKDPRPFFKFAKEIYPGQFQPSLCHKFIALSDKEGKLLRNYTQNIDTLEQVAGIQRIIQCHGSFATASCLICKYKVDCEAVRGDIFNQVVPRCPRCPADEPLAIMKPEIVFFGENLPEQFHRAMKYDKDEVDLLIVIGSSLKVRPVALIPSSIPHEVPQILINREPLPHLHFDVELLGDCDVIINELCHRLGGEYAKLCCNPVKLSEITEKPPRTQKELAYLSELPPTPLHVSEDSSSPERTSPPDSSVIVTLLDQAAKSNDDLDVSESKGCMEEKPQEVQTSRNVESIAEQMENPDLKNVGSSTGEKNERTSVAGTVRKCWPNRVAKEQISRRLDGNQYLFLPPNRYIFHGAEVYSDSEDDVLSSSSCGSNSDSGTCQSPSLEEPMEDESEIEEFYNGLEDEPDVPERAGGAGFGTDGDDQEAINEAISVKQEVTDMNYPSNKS

Tests used:
[1] = target: recombinant human Sirt1 (193–747) (human) (UniProt Q96EB6); assay: ITC; 25 °C, MicroCal iTC200; 100–200 μM protein in the cell titrated with 1.5–2.5 mM peptide; fit to a single set of independent sites; both purified
[2] = target: T1, recombinant human Sirt2 (36–356) (human) (UniProt Q8IXJ6); assay: as above
T1 sequence: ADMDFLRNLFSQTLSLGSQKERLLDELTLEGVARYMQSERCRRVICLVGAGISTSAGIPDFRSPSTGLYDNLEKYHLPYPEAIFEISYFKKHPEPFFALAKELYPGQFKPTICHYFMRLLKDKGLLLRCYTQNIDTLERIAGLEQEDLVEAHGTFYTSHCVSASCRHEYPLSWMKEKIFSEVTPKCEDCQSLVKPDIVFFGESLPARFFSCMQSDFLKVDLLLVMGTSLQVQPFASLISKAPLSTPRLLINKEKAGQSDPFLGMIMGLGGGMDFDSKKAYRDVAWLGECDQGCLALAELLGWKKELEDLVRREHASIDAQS

Substance: H3K4Cr (1–15) peptide (from UniProt P68431 2-16)
- binding [1]: binds weakly
- binding [2]: binds weakly
